# One purity is given for all peptides; the source may state it once.
# Experiment: general procedure: Fmoc solid-phase peptide synthesis; Rink Amide Protide (LL) resin; DIC/Oxyma Pure
# Conditions: whole synthesis, 220 nm
row,Substance,final HPLC purity [%]
1,CF-XAGYLLGKINLKALAAS5*AKKS5*L,>99
2,CF-XAS5*YLLS5*KINLKALAALAKKIL,>99
3,CF-XAGYLLGKINLKALAALAKKIL,>99
4,CF-XAGYS5*LGKS5*NLKALAALAKKIL,>99

# Source: PMC10380766 (International Journal of Molecular Sciences, 2023)
